Experimental data taken from patent US7857962B2, “Potentiometric electrode, gradient polymer, uses and method of preparation therefor” (Universiteit Antwerpen, priority 2004, dated 2010).

Columns and labels:
[1] = HPLC potentiometric detection of organic acids, ionophore-based electrode; settings: tartaric acid; pmol injected; electrode comprising the compound; eluent 1 mM H3PO4
[2] = as above; settings: for detection limit: minimum amount of acid required for detection: malonic acid, pmol injected, electrode comprising the compound, eluent 1 mM H3PO4
[3] = as above; settings: lactic acid; pmol injected; electrode comprising the compound; eluent 1 mM H3PO4
[4] = as above; settings: citric acid; pmol injected; electrode comprising the compound; eluent 1 mM H3PO4
[5] = as above; settings: succinic acid; pmol injected; electrode comprising the compound; eluent 1 mM H3PO4

Structure (SMILES)	detection limit: minimum amount of acid required for detection [1] [pmol]	detection limit: minimum amount of acid required for detection [2] [pmol]	detection limit: minimum amount of acid required for detection [3] [pmol]	detection limit: minimum amount of acid required for detection [4] [pmol]	detection limit: minimum amount of acid required for detection [5] [pmol]	detection limit for malonic acid ([2]; coating 33.8% PVC, 66% o-NPOE, 0.2% MTDDACl, 1% ligand 3)
CCCCCCCCCCCCCCCCCCNC(=O)NCCN(CCNC(=O)NCCCCCCCCCCCCCCCCCC)CCNC(=O)NCCCCCCCCCCCCCCCCCC [Compound 1]	20	1.6	830	23	77	
O=C(NCCN(CCNC(=O)Nc1ccccc1)CCNC(=O)Nc1ccccc1)Nc1ccccc1 [Compound 2]	12	1.0	910	10	56	
CCCCCCCCCCCCCCCCCCNC(=O)Nc1cccc(N)n1 [Compound 3]	11	1.1	650	7	47	low picogram range
CCCCCCCCCCCCCCCCCCNC(=O)Nc1cccc(NC(=O)NCCCCCCCCCCCCCCCCCC)n1 [Compound 4]	23	1.6	1200	15	86	
CCCCCCCCCCCC[N+](C)(CCCCCCCCCCCC)CCCCCCCCCCCC.[Cl-] [MTDDACI, methyltridodecylammoniumchloride, reference compound]	200	200	1000	200	700	
